Source: the supplement of paper PMC12873370
Several values for one entry are separate records, joined by “and”; a condition that tells them apart may be missing. Equal values may be shown once. This is one part of the list. Most values come without repeats; read them as rough.

Experiments:
Assay in all cases: cell viability relative to untreated (fraction); higher = less growth inhibition
Settings in all cases: 5 µM; 3 days
[1] = tested on: MEPP (mouse ovarian epithelium Trp53/Pten KO)
[2] = tested on: PREPP (mouse prostate epithelium Trp53/Pten KO)
[3] = tested on: MEPP (mouse ovarian epithelium Trp53/Pten KO); remark: listed apart in the source
[4] = tested on: PREPP (mouse prostate epithelium Trp53/Pten KO); remark: listed apart in the source

O=C(NC[C@H](O)CN1CCc2ccccc2C1)c1ccnc(NC2CCC2)c1
cell viability [1]: 1.16 | cell viability [2]: 1.06

N#Cc1c(Oc2ccc(F)c(NC(=O)Cc3cccc(C(F)(F)F)c3)c2)ccc2nc(NC(=O)C3CC3)sc12
cell viability [1]: 0.859 | cell viability [2]: 0.838

N[C@H]1C[C@@H]1c1ccc(-c2cccc(O)c2)cc1
cell viability [1]: 1.11 | cell viability [2]: 0.907

CC(C)N(CCC(=O)c1ccc2ccccc2c1)Cc1ccccc1
cell viability [1]: 0.833 | cell viability [2]: 0.814

CCCc1cc(C)[nH]c(=O)c1CNC(=O)c1cc(-c2ccc(N3CCN(C(C)C)CC3)nc2)cc2c1cnn2C(C)C
cell viability [1]: 1.01 | cell viability [2]: 0.785

O=C(c1ccc(Cl)cc1Cl)n1nnc2ccccc21
cell viability [1]: 1.08 | cell viability [2]: 0.871

O=C1c2c(O)ccc(O)c2C(=O)c2c(NCCNCCO)ccc(NCCNCCO)c21
cell viability [1]: 0.299 | cell viability [2]: 0.373

COc1ccc(-c2nc(N3CCOCC3)c3sc(CN(C)c4ncc(C(=O)NO)cn4)cc3n2)cn1
cell viability [1]: 0.508 | cell viability [2]: 0.501

Cc1[nH]c2ccccc2c1CCNCc1ccc(/C=C/C(=O)NO)cc1
cell viability [1]: 0.382 | cell viability [2]: 0.995

CC[C@@](C)(Nc1ccnc(-c2c[nH]c3ncccc23)n1)C(=O)NCC(F)(F)F
cell viability [1]: 0.957 | cell viability [2]: 0.966

COc1ccccc1S(=O)(=O)Nc1ccc2c(c1)CN(C)C(=O)N2
cell viability [1]: 0.765 | cell viability [2]: 0.688

O=C(O)c1ccc(CN2CCC(CN[C@@H]3C[C@H]3c3ccccc3)CC2)cc1
cell viability [1]: 0.977 | cell viability [2]: 0.916

NC(=O)c1ccccn1
cell viability [1]: 1.01 | cell viability [2]: 1.11

O=C(Nc1c[nH]nc1-c1nc2ccc(CN3CCOCC3)cc2[nH]1)NC1CC1
cell viability [1]: 0.667 | cell viability [2]: 0.804

O=C(O)CNC(=O)c1nc(Cl)c2ccccc2c1O
cell viability [1]: 1 | cell viability [2]: 1.04

Cc1cc(C)c(CNC(=O)c2cc(-c3ccc(N4CCN(C)CC4)nc3)cc3c2c(C)cn3C(C)C)c(=O)[nH]1
cell viability [1]: 0.934 | cell viability [2]: 1.03

COc1ccccc1C(=O)Nc1cc2c(cc1N1CCCC1)n(C)c(=O)n2C
cell viability [1]: 0.928 | cell viability [2]: 1.04

O=C(CCCCCCC(=O)Nc1ccc(I)cc1)NO
cell viability [1]: 0.475 | cell viability [2]: 0.67

O=C([C@@H](Cc1cccc(C(F)(F)F)c1)NS(=O)(=O)c1cc(F)c2c(c1)CCNC2)N1CCCC1
cell viability [1]: 1.07 and 0.87 | cell viability [2]: 1 and 0.798

CC(=O)SCC(=O)c1ccc(NS(=O)(=O)c2ccc(OCCCN(C)C)cc2)nc1
cell viability [1]: 0.637 | cell viability [2]: 0.793

COc1cc(OC)c2c(=O)[nH]c(-c3cc(C)c(OCCO)c(C)c3)nc2c1
cell viability [1]: 0.878 | cell viability [2]: 0.706

CCCCCCCCCCCCCC(=S)NCCCC[C@H](NC(=O)OCc1ccccc1)C(=O)Nc1ccccc1
cell viability [1]: 1.07 | cell viability [2]: 0.94

NC(=O)c1cccc2cn(-c3ccc([C@@H]4CCCNC4)cc3)nc12
cell viability [1]: 0.9 | cell viability [2]: 0.835

CCC(CC)(NC(=O)C(C)C)C(=O)N[C@@H](CCCN=C(N)N)C(=O)NC1(C(=O)NC(c2ccc(F)cc2)c2ccc(F)cc2)CCCC1
cell viability [1]: 1.07 | cell viability [2]: 0.894

NC(=O)c1cccc2[nH]c(-c3ccc(C4CCCN4)cc3F)nc12 (centres undefined)
cell viability [1]: 0.802 | cell viability [2]: 0.801

Cc1cc(/N=N/c2ccc(S(=O)(=O)Nc3ccccn3)cc2)c(N)cc1O
cell viability [1]: 1.08 | cell viability [2]: 0.672

O=Nc1ccc(O)c2ncccc12
cell viability [1]: 0.702 | cell viability [2]: 0.678

Cc1csc(-c2nnc(Nc3ccc(Oc4ncccc4-c4ccnc(N)n4)cc3)c3ccccc23)c1
cell viability [1]: 0.598 | cell viability [2]: 0.532

Cc1cc(C)c(CNC(=O)c2cc(-c3ccc(CN4CCOCC4)cc3)cc3c2cnn3C2CCCC2)c(=O)[nH]1
cell viability [1]: 0.664 | cell viability [2]: 0.819

O=C(Nc1cccc(Nc2nccc(Nc3cccc(C(F)(F)F)c3)n2)c1)C1CC1
cell viability [1]: 1.06 | cell viability [2]: 0.943

Cc1nc(C(=O)NCC(=O)O)c(O)c2ccc(Oc3ccccc3)cc12
cell viability [1]: 0.843 | cell viability [2]: 0.885

O=S(=O)(NCCSSCCNS(=O)(=O)c1cc(Cl)ccc1Cl)c1cc(Cl)ccc1Cl
cell viability [1]: 0.805 | cell viability [2]: 1.1

O=C(c1cc(Cc2n[nH]c(=O)c3ccccc23)ccc1F)N1CCN(C(=O)C2CC2)CC1
cell viability [1]: 0.937 | cell viability [2]: 0.808

C[C@@H]1CCN(C(=O)CC#N)C[C@@H]1N(C)c1ncnc2[nH]ccc12
cell viability [1]: 0.925 and 0.912 | cell viability [2]: 0.888 and 0.841

COc1cc2c(Nc3ccc(NC(=O)c4ccccc4)cc3)ncnc2cc1OCCCN1CCOCC1
cell viability [1]: 0.887 | cell viability [2]: 0.722

CC(=O)N1c2ccc(-c3ccc(C(=O)O)cc3)cc2[C@H](Nc2ccc(Cl)cc2)C[C@@H]1C
cell viability [1]: 0.87 | cell viability [2]: 0.634

COc1cccc2c1c(O)c(C(=O)N(C)c1ccc(C(F)(F)F)cc1)c(=O)n2C
cell viability [1]: 0.98 | cell viability [2]: 0.909

N#Cc1ccc(OC2CCC(NC(=O)CCSc3nc4ccccc4c(=O)[nH]3)CC2)cc1 (centres undefined)
cell viability [1]: 0.929 | cell viability [2]: 0.746

O=C(CCCCCCNC(=O)c1cnc(N(c2ccccc2)c2ccccc2Cl)nc1)NO
cell viability [1]: 0.835 | cell viability [2]: 0.887

O=C(NN=Cc1c(O)ccc2ccccc12)c1ccncc1
cell viability [1]: 0.503 | cell viability [2]: 0.652

C1=N/C2=N/c3ccc(OCCN4CCCC4)c(c3)COC/C=C/COCc3cccc(c3)C(=C1)N2
cell viability [1]: 0.706 | cell viability [2]: 0.755

CCOC(=O)CCNc1cc(N2CCc3ccccc3CC2)nc(-c2ccccn2)n1
cell viability [1]: 0.752 | cell viability [2]: 0.72

CC(C)c1c(-c2ccccc2)nc2c(C#N)c[nH]n2c1=O
cell viability [1]: 1.16 | cell viability [2]: 1.11

O=C(CCCCCCC(=O)Nc1ccccc1)NO
cell viability [1]: 0.809 | cell viability [2]: 0.721

O=S(=O)(c1cccc2cnccc12)N1CCNCC1
cell viability [1]: 0.875 | cell viability [2]: 0.771

O=C(O)c1ccnc(C(=O)O)c1
cell viability [1]: 0.876 | cell viability [2]: 1.05

CC(=O)Nc1ccc(C(=O)Nc2ccccc2N)cc1
cell viability [1]: 0.975 | cell viability [2]: 0.851

COc1cccc2c1C(=O)c1c(O)c3c(c(O)c1C2=O)C[C@@](O)(C(=O)CO)C[C@@H]3O[C@H]1C[C@H](N)[C@H](O)[C@H](C)O1
cell viability [1]: 0.38 | cell viability [2]: 0.46

O=C(/C=C/c1ccc(CN(CCO)CCc2c[nH]c3ccccc23)cc1)NO
cell viability [1]: 0.504 | cell viability [2]: 0.616

CC(C)C(=O)SCCCCCCC(=O)Nc1nc(-c2ccccc2)cs1
cell viability [1]: 0.754 | cell viability [2]: 0.891

CN(C)CCCNC(=O)c1ccc(-c2cc(O)c3ncccc3c2)cc1
cell viability [1]: 0.944 | cell viability [2]: 0.807

COc1ccc(CCc2nc3cc(-c4c(C)noc4C)ccc3n2C[C@H](C)N2CCOCC2)cc1Cl
cell viability [1]: 0.745 | cell viability [2]: 0.789

Cc1nc(-c2cccnc2)sc1C(=O)Nc1ccccc1-c1cn2c(CN3CCOCC3)csc2n1
cell viability [1]: 1.05 | cell viability [2]: 0.796

Oc1nc(-c2ccc(C(F)(F)F)cc2)nc2c1CSCC2
cell viability [1]: 1.1 | cell viability [2]: 0.829

CO[C@@H](C(=O)N1Cc2[nH]nc(NC(=O)c3ccc(N4CCN(C)CC4)cc3)c2C1)c1ccccc1
cell viability [1]: 0.798 | cell viability [2]: 0.796

CN(C)c1ccc(-c2nc3ncc(Cl)c(N4CCN(CC(=O)Nc5nccs5)CC4)c3[nH]2)cc1
cell viability [1]: 0.989 | cell viability [2]: 0.904

CN(C)CCCn1cc(C2=C(c3c[nH]c4ccccc34)C(=O)NC2=O)c2ccccc21
cell viability [1]: 0.808 | cell viability [2]: 0.783

CCOC(=O)Nc1cc(-c2ccc(C)c(NS(C)(=O)=O)c2)nn2c(C)nnc12
cell viability [1]: 0.668 | cell viability [2]: 0.623

CN1CCc2c(c3ccccc3n2Cc2ccc(C(=O)NO)cc2)C1
cell viability [1]: 0.865 and 0.957 | cell viability [2]: 0.826 and 0.75

Cc1cnc(Nc2ccc(N3CCN(C)CC3)cc2)nc1Nc1cccc(S(=O)(=O)NC(C)(C)C)c1
cell viability [1]: 0.883 | cell viability [2]: 0.572

N#Cc1ccc(-c2csc(NN=C3CCCC3)n2)cc1
cell viability [1]: 1.15 | cell viability [2]: 0.976

CCCOc1ccc(CCc2nc3cc(-c4c(C)noc4C)ccc3n2CCN2CCOCC2)cc1
cell viability [1]: 0.772 | cell viability [2]: 0.677

CNCc1ccc(-c2[nH]c3cc(F)cc4c3c2CCNC4=O)cc1
cell viability [1]: 0.923 and 0.847 | cell viability [2]: 0.816 and 0.83

Nc1ccccc1NC(=O)CCCCCCC(=O)Nc1ccccc1
cell viability [1]: 1.03 | cell viability [2]: 0.878

O=C(O)[C@@]1(CCCCCCOc2ccc(Cl)cc2)CO1
cell viability [1]: 1.03 | cell viability [2]: 1.02

C[C@@H]1CC(=O)Nc2cccc(-c3ccc4c(c3)c(-c3cnn(C)c3)nn4C)c2N1
cell viability [1]: 0.628 | cell viability [2]: 0.703

CN(C)CC(=O)Nc1ccc2[nH]c(=O)c3ccccc3c2c1
cell viability [1]: 0.792 | cell viability [2]: 0.856

CCCCc1nc2cc(/C=C/C(=O)NO)ccc2n1CCN(CC)CC
cell viability [1]: 0.641 | cell viability [2]: 0.639

CCCCOc1ccc(CC(=O)NO)cc1
cell viability [1]: 1.03 | cell viability [2]: 0.969

O=C1CCc2c(ccc3ccccc23)O1
cell viability [1]: 1.03 | cell viability [2]: 0.989

CS(=O)(=O)c1ccc(-c2nnc(/C=C/c3nnc(-c4ccc(C#N)cc4)o3)n2-c2ccccc2Cl)nc1
cell viability [1]: 0.871 | cell viability [2]: 0.932

O=C(Nc1ccccc1-c1cn2c(CN3CCNCC3)csc2n1)c1cnc2ccccc2n1
cell viability [1]: 0.211 | cell viability [2]: 0.229

Cn1ncnc1[C@H]1c2n[nH]c(=O)c3cc(F)cc(c23)N[C@@H]1c1ccc(F)cc1
cell viability [1]: 0.721 | cell viability [2]: 0.754

N#Cc1c(O)c2c(-c3ccc(-c4ccccc4O)cc3)csc2[nH]c1=O
cell viability [1]: 0.863 | cell viability [2]: 0.859

COc1ccc(C2(CNC(=O)c3ccc(NC(=O)c4ccco4)cc3)CCOCC2)cc1
cell viability [1]: 0.765 | cell viability [2]: 0.87

O=C(O)CCNc1cc(N2CCc3ccccc3CC2)nc(-c2cccnc2)n1
cell viability [1]: 0.977 | cell viability [2]: 0.998

CC1COc2c(N3CCN(C)CC3)c(F)cc3c(=O)c(C(=O)O)cn1c23 (centres undefined)
cell viability [1]: 0.799 | cell viability [2]: 0.989

CCC(=O)Nc1cccc(Oc2nc(Nc3ccc(N4CCN(C)CC4)cc3OC)ncc2Cl)c1
cell viability [1]: 0.944 | cell viability [2]: 0.996

C=C1C[C@@]2(O)O[C@@]3(C[C@H]2C(C)C)[C@@H](C)CC[C@@H]13
cell viability [1]: 1.1 | cell viability [2]: 1.07 | cell viability [3]: 0.844 | cell viability [4]: 0.874

Nc1ncn([C@H]2C[C@H](O)[C@@H](CO)O2)c(=O)n1
cell viability [1]: 0.832 | cell viability [2]: 0.906 | cell viability [3]: 1.06 | cell viability [4]: 0.966

C[C@@H]1O[C@@H](OC[C@H]2O[C@@H](Oc3c(-c4ccc(O)c(O)c4)oc4cc(O)cc(O)c4c3=O)[C@H](O)[C@@H](O)[C@@H]2O)[C@H](O)[C@H](O)[C@H]1O
cell viability [3]: 0.834

COc1cccc2c1C(=O)c1c(O)c3c(c(O)c1C2=O)CC(O)(C(=O)CO)CC3OC1CC(N)C(O)C(C)O1 (centres undefined)
cell viability [1]: 0.313 | cell viability [2]: 0.314 | cell viability [3]: 0.851 | cell viability [4]: 0.672
